Measurements taken from PubChem BioAssay AID256 (DTP/NCI, 2004).
The list does not hold the whole screen: it gathers tests that were run many times, whatever their T/C, doses with no T/C, and many T/C values between a quarter and a half above the control. Other doses and runs of a compound stand elsewhere. T/C: endpoint of the treated group in % of that of the vehicle group. Some entries give survivors of the animals treated and no T/C: the source holds a T/C of zero for them, seemingly a mark for toxic or unscored doses. Some doses without a T/C left all or most animals alive at the check, yet need not have been tolerated: the source hardly ever lists a survival T/C far under the control, and the zero likely stands for such cases as well. Survivors were counted at the toxicity check, usually on the fifth day, unless a day is given; later deaths do not show. Schedule codes are those of the source, read here as Q, the interval in days (D) or hours (H), X, the number of doses. For survival time, the PubChem record calls one and a half times the control and up active, and a quarter to a half above the control has no call in these data; cut-offs in other NCI protocols can differ. Some doses were run more than once; the values are given in rising order. Counts like (3×) say how often a value occurs here.

Tested on: CD2F1 mice, L1210 leukemia ip, survival T/C
Assay: NCI In Vivo Anticancer Drug Screen. Data for tumor model L1210 Leukemia (intraperitoneal) in CD2F1 (CDF1) mice
Settings: higher T/C = longer survival
Method in brief: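 Vehicle-treated tumor-bearing mice served as controls (C) for compound-treated mice (T). Reported figure is T divided by C.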

[1] = T/C endpoint: mean survival time, dose: 200.0 mg/kg/injection, schedule: Q04DX003 (ip), vehicle: saline
[2] = T/C endpoint: mean survival time, dose: 400.0 mg/kg/injection, schedule: Q04DX003 (ip), vehicle: saline
[3] = T/C endpoint: mean survival time, dose: 100.0 mg/kg/injection, schedule: Q04DX003 (ip), vehicle: saline with Tween-80
[4] = T/C endpoint: mean survival time, dose: 200.0 mg/kg/injection, schedule: Q04DX003 (ip), vehicle: saline with Tween-80
[5] = T/C endpoint: mean survival time, dose: 400.0 mg/kg/injection, schedule: Q04DX003 (ip), vehicle: saline with Tween-80
[6] = T/C endpoint: mean survival time, dose: 100.0 mg/kg/injection, schedule: Q04DX003 (ip), vehicle: saline
[7] = T/C endpoint: mean survival time, dose: 300.0 mg/kg/injection, schedule: Q01DX001 (ip), vehicle: saline
[8] = T/C endpoint: mean survival time, dose: 400.0 mg/kg/injection, schedule: Q01DX009 (ip), vehicle: saline with Tween-80

CCOC(=O)Cc1c(C)[nH]c2c(C)ccc(C)c12
survivor count (T/C endpoint: mean survival time, dose: 200.0 mg/kg/injection, schedule: Q01DX001 (ip), vehicle: other): 2 of 4 | survivor count (T/C endpoint: mean survival time, dose: 400.0 mg/kg/injection, schedule: Q01DX001 (ip), vehicle: other): 3 of 4

CC(O)C1OC(n2cnc3c(=S)nc[nH]c32)C(O)C1O (centres undefined)
T/C (T/C endpoint: median survival time, dose: 25.0 mg/kg/injection, schedule: Q01DX005 (ip), vehicle: distilled water + Tween-80): 125 % of control | T/C (T/C endpoint: median survival time, dose: 50.0 mg/kg/injection, schedule: Q01DX005 (ip), vehicle: distilled water + Tween-80): 134, 137, 142 % of control | T/C (T/C endpoint: median survival time, dose: 100.0 mg/kg/injection, schedule: Q01DX005 (ip), vehicle: distilled water + Tween-80): 137 and 146 % of control (2×) | T/C (T/C endpoint: median survival time, dose: 200.0 mg/kg/injection, schedule: Q01DX005 (ip), vehicle: distilled water + Tween-80): 148 % of control

OCCNCc1ccc(OCc2ccccc2)c(OCc2ccccc2)c1
survivor count (T/C endpoint: median survival time, dose: 25.0 mg/kg/injection, schedule: Q04DX003 (ip), vehicle: saline with Tween-80): 3 of 3 | survivor count (T/C endpoint: median survival time, dose: 200.0 mg/kg/injection, schedule: Q04DX003 (ip), vehicle: saline with Tween-80): 0 of 3

CC[C@H](C)c1occ2c(O)c(C(=O)O)c(=O)cc-2c1C
survivor count (T/C endpoint: mean survival time, dose: 400.0 mg/kg/injection, schedule: Q01DX001 (ip), vehicle: saline): 2 of 6

O=C(O)CN(CCO)CCN(CC(=O)O)CC(=O)O
survivor count [1]: 1 of 6 | survivor count [2]: 0 of 6

CCCCCCCCCCNCCS
survivor count (T/C endpoint: mean survival time, dose: 10.0 mg/kg/injection, schedule: Q01DX009 (ip), vehicle: saline with Tween-80): 3 of 6 | survivor count [3]: 0 of 6 | survivor count [4]: 1 of 6 | survivor count [5]: 0 of 6

CC1(C)N=C(N)N=C(N)N1c1ccc(OCc2ccc(C(=O)Nc3cccc(S(=O)(=O)F)c3)cc2)c(Cl)c1
T/C (T/C endpoint: mean survival time, dose: 50.0 mg/kg/injection, schedule: Q04DX003 (ip), vehicle: saline): 146 % of control | T/C [6]: 142 % of control | survivor count [2]: 6 of 6

CC(=O)[O][Hg][CH]1CCCCC1O (centres undefined)
survivor count (T/C endpoint: mean survival time, dose: 12.5 mg/kg/injection, schedule: Q01DX009 (ip), vehicle: saline + alcohol): 0 of 6 | survivor count (T/C endpoint: mean survival time, dose: 75.0 mg/kg/injection, schedule: Q01DX001 (ip), vehicle: saline): 0 of 6 | survivor count (T/C endpoint: mean survival time, dose: 100.0 mg/kg/injection, schedule: Q01DX009 (ip), vehicle: saline with Tween-80): 0 of 6 | survivor count (T/C endpoint: mean survival time, dose: 150.0 mg/kg/injection, schedule: Q01DX001 (ip), vehicle: saline): 0 of 6 | survivor count (T/C endpoint: mean survival time, dose: 200.0 mg/kg/injection, schedule: Q01DX009 (ip), vehicle: saline with Tween-80): 0 of 6 | survivor count [7]: 0 of 6 | survivor count [8]: 0 of 6

O=NN(CCCl)C(=O)Nc1cc(NC(=O)N(CCCl)N=O)cc(C(=O)O)c1
survivor count (T/C endpoint: mean survival time, dose: 40.0 mg/kg/injection, schedule: Q04DX003 (ip), vehicle: saline with Tween-80): 6 of 6

Cc1c2cnccc2c(C)c2c1c1ccccc1n2CCNCc1ccccc1
survivor count [5]: 6 of 6

C[C@H]1CN1C1=CC(=O)C(N2C[C@@H]2C)=CC1=O
T/C (T/C endpoint: mean survival time, dose: 1.0 mg/kg/injection, schedule: Q01DX009 (ip), vehicle: other): 125 % of control | T/C (T/C endpoint: mean survival time, dose: 1.39 mg/kg/injection, schedule: Q01DX009 (ip), vehicle: other): 134 % of control | T/C (T/C endpoint: mean survival time, dose: 1.5 mg/kg/injection, schedule: Q01DX009 (ip), vehicle: other): 125 % of control | T/C (T/C endpoint: mean survival time, dose: 2.08 mg/kg/injection, schedule: Q01DX009 (ip), vehicle: other): 128 % of control | T/C (T/C endpoint: mean survival time, dose: 2.3 mg/kg/injection, schedule: Q01DX009 (ip), vehicle: other): 135 % of control | T/C (T/C endpoint: mean survival time, dose: 5.56 mg/kg/injection, schedule: Q04DX003 (ip), vehicle: saline with Tween-80): 125 % of control | T/C (T/C endpoint: mean survival time, dose: 8.33 mg/kg/injection, schedule: Q04DX003 (ip), vehicle: saline with Tween-80): 145 % of control | T/C (T/C endpoint: mean survival time, dose: 8.4 mg/kg/injection, schedule: Q01DX001 (ip), vehicle: other): 130 % of control | survivor count (T/C endpoint: mean survival time, dose: 12.5 mg/kg/injection, schedule: Q01DX009 (ip), vehicle: other): 6 of 6 | T/C (T/C endpoint: mean survival time, dose: 12.5 mg/kg/injection, schedule: Q04DX003 (ip), vehicle: saline with Tween-80): 147 % of control | survivor count (T/C endpoint: mean survival time, dose: 19.0 mg/kg/injection, schedule: Q01DX001 (ip), vehicle: other): 6 of 6 | survivor count (T/C endpoint: mean survival time, dose: 25.0 mg/kg/injection, schedule: Q01DX009 (ip), vehicle: other): 1 of 6 | survivor count (T/C endpoint: mean survival time, dose: 28.5 mg/kg/injection, schedule: Q01DX001 (ip), vehicle: other): 5 of 6 | survivor count [3]: 0 of 6 | survivor count [4]: 0 of 6 | survivor count [5]: 6 of 6

CC(C[P+](c1ccccc1)(c1ccccc1)c1ccccc1)C(O)(C(=O)c1ccccc1)c1ccccc1 (centres undefined)
survivor count (T/C endpoint: mean survival time, dose: 25.0 mg/kg/injection, schedule: Q01DX009 (ip), vehicle: saline with Tween-80): 5 of 6

O=c1cc2cccccc-2cc1O
survivor count (T/C endpoint: mean survival time, dose: 80.0 mg/kg/injection, schedule: Q04DX003 (ip), vehicle: saline with Tween-80): 2 of 6

CN(C)c1ccc2c(SCC(=O)OCC(=O)[C@@]3(O)CC[C@H]4[C@@H]5CCC6=CC(=O)C=C[C@]6(C)[C@H]5C(=O)C[C@@]43C)c3ccc(N(C)C)cc3nc2c1
T/C (T/C endpoint: median survival time, dose: 200.0 mg/kg/injection, schedule: Q01DX009 (ip), vehicle: Klucel (hydroxypropylcellulose) (HPC)): 126 and 132 % of control | survivor count (T/C endpoint: median survival time, dose: 400.0 mg/kg/injection, schedule: Q01DX009 (ip), vehicle: Klucel (hydroxypropylcellulose) (HPC)): 2 of 6

O=C(OC12CCCC1CC2)c1ccc([N+](=O)[O-])cc1 (centres undefined)
survivor count [8]: 6 of 6

O=C(O)CBr.O=C(O)CBr.[NH-]C1CCCCCCC1[NH-].[Pt+2] (centres undefined)
T/C (T/C endpoint: mean survival time, dose: 37.5 mg/kg/injection, schedule: Q01DX001 (ip), vehicle: distilled water + Tween-80): 132 % of control | T/C (T/C endpoint: mean survival time, dose: 75.0 mg/kg/injection, schedule: Q01DX001 (ip), vehicle: distilled water + Tween-80): 147 % of control | T/C (T/C endpoint: mean survival time, dose: 150.0 mg/kg/injection, schedule: Q01DX001 (ip), vehicle: distilled water + Tween-80): 145 % of control

CS(=O)(=O)C(Br)S(C)(=O)=O
survivor count [6]: 1 of 6 | survivor count [1]: 0 of 6 | survivor count [2]: 0 of 6

O=c1cc(-c2ccccc2)[nH]c(-c2ccccc2)c1
survivor count [8]: 5 of 6

CN1C(C(=O)O)CCC1C(=O)O (centres undefined)
survivor count [2]: 1 of 6

COC1=C(N2CC2)C(=O)C(OC)=C(N2CC2)C1=O
T/C (T/C endpoint: mean survival time, dose: 2.0 mg/kg/injection, schedule: Q01DX015 (ip), vehicle: saline): 136 % of control

CCCCCOC(=O)Nc1cccc(O)c1
survivor count [5]: 3 of 6

CCOC(=O)c1c(C)[nH]c(C)cc1=O
survivor count (T/C endpoint: mean survival time, dose: 400.0 mg/kg/injection, schedule: Q04DX002 (ip), vehicle: saline): 0 of 3

NC(=O)C1OC(n2cnc3c(N)ncnc32)C(O)C1O (centres undefined)
survivor count (T/C endpoint: mean survival time, dose: 100.0 mg/kg/injection, schedule: Q01DX005 (ip), vehicle: saline): 0 of 6 | survivor count (T/C endpoint: mean survival time, dose: 200.0 mg/kg/injection, schedule: Q01DX005 (ip), vehicle: saline): 0 of 6

CC/C=N/NC(N)=S
survivor count (T/C endpoint: mean survival time, dose: 40.0 mg/kg/injection, schedule: Q01DX001 (ip), vehicle: saline): 0 of 6 | survivor count (T/C endpoint: mean survival time, dose: 80.0 mg/kg/injection, schedule: Q01DX001 (ip), vehicle: saline): 0 of 6

CCN1CCC2OCOC2C1 (centres undefined)
survivor count [7]: 0 of 6
